According to PubChem BioAssay AID651640 (Broad Institute, 2012):
Where “and” joins values, the source holds several entries; their conditions need not be identical. Equal entries are not always repeated. Hit rate of the full screen: of about 350,000 compounds, about 6,000 (1.7%) were called active. This list was built around the results that the source calls inconclusive (neither active nor inactive); the mix of calls is not that of the screen. Rule as the data show it: active = CPE inhibition above about 20% (passing the limit was not always enough); inconclusive = no clear call, values can overlap the other calls; tested in BHK-21 cells. A structure can be active in one record and inactive in another.

Experiment: protection of cells from dengue 2 killing – plate reader, single concentration, primary screen (AID 651640);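 also: 0% = median of neutral control wells and 100% = median of positive control wells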
Conditions: DENV2-infected cells, cytopathic effect rescue, at 9.99 µM, stronger effect = higher value

Structure (SMILES) | CPE inhibition
Cc1ccccc1-n1c(C)cc(/C=C2/C(=N)N3C(c4ccccc4)=CSC3=NC2=O)c1C | inconclusive: 20.8%
COc1ccc(/C=C2/SC(=S)N(NS(=O)(=O)c3ccc(C)cc3)C2=O)cc1 | inconclusive: 30.8%
Cc1noc(C)c1NC(=O)N(C)C[C@@H]1Oc2c(NC(=O)CCCCCC(=O)Nc3ccccc3N)cccc2C(=O)N([C@H](C)CO)C[C@@H]1C | active: 57.6%
COc1ccc(Cc2n[nH]c(=S)n2-c2cc(C)ccc2C)cc1OC | active: 96.2%
C[C@H]1CN([C@@H](C)CO)C(=O)Cc2cc(NC(=O)c3ccncc3)ccc2O[C@@H]1CN(C)CC1CCCCC1 | inconclusive: 30.7%
Cc1oc(-c2ccccc2F)nc1CS(=O)CC(=O)NC1CCCC1 (centres undefined) | inconclusive: 28.3%
CN1c2ccc(C3=CCCCC3)cc2[C@@H]2[C@@H](CCN2S(=O)(=O)c2ccccc2)[C@@H]1CO | inconclusive: 20.6%
CN(CC(=O)Nc1ccc(F)cc1)C(=O)C1CCN(S(=O)(=O)c2ccc3c(c2)OCCO3)CC1 | inconclusive: 20.3%
O=C(NCc1cccnc1)c1ccc2sc([C@@H]3O[C@H](CO)[C@H](O)[C@H](O)[C@H]3O)nc2c1 | inconclusive: 60%
CCN(CC)CCNC(=O)CCn1nc(-c2ccc(Cl)cc2)ccc1=O | inconclusive: 35.3%
CCCc1nc2ccccc2n1C(C)C(=O)NC(C)(C)C (centres undefined) | active: 34.6%
C[C@@H]1CCCCO[C@H](CN(C)C(=O)Nc2ccccc2)[C@@H](C)CN([C@H](C)CO)C(=O)c2cc(NS(=O)(=O)c3cn(C)cn3)ccc2O1 | inactive: -11.5% and active: 44.6%
CC(C)Oc1ccc(/C=N/NC(=O)c2ccc(N(Cc3ccccc3)S(C)(=O)=O)cc2)cc1 | inconclusive: 21.3%
Cc1ccc(S(=O)(=O)Nc2ccc3c(c2)C(=O)N([C@H](C)CO)C[C@@H](C)[C@H](CN(C)S(=O)(=O)c2cccs2)OCCCC[C@H](C)O3)cc1 | inconclusive: 26.7%
C[C@H](CO)N1C[C@H](C)[C@H](CN(C)CC2CCCCC2)Oc2c(NC(=O)C3CC3)cccc2C1=O | active: 35.8%
CN(C[C@@H]1[C@H](c2ccccc2)[C@@H](CO)N1C(=O)C1CC1)C(=O)c1ccccn1 | inconclusive: 47.6%
C[C@@H]1CN([C@H](C)CO)C(=O)c2cccc(NS(=O)(=O)c3cccs3)c2O[C@@H]1CN(C)C(=O)NC1CCCCC1 | inconclusive: 32.2%
COc1cc2c(cc1OC)[C@@H](NC(=O)c1ccc(C(F)(F)F)cc1)[C@H](OCc1ccccc1)C2 | inconclusive: 72.5%
Cc1cc(NC(=O)c2cc(C(C)C)on2)nn1Cc1ccc(Cl)cc1 | inconclusive: 21.5%
CCCNC(=O)N(C)C[C@@H]1Oc2ncc(-c3ccc(OC)cc3)cc2C(=O)N([C@H](C)CO)C[C@H]1C | inactive: -0.813%
COc1ccc(S(=O)(=O)Nc2ccc3c(c2)CC(=O)N([C@@H](C)CO)C[C@@H](C)[C@@H](CN(C)Cc2ccncc2)O3)cc1 | inactive: -1.46%
Cc1noc(C)c1S(=O)(=O)Nc1ccc2c(c1)C(=O)N([C@@H](C)CO)C[C@H](C)[C@H](CN(C)C(=O)CCCN(C)C)OCCCC[C@H](C)O2 | active: 73.2%
Cc1cccn2c(=O)c(/C=C(\C#N)C(=O)NC3CCS(=O)(=O)C3)c(N3CC(C)OC(C)C3)nc12 (centres undefined) | inactive: -1.4%

Some of the entries so far, with each value named:
CN1c2ccc(C3=CCCCC3)cc2[C@@H]2[C@@H](CCN2S(=O)(=O)c2ccccc2)[C@@H]1CO
  CPE inhibition: inconclusive: 20.6%
CCN(CC)CCNC(=O)CCn1nc(-c2ccc(Cl)cc2)ccc1=O
  CPE inhibition: inconclusive: 35.3%

Going on with the list.

Structure (SMILES) | CPE inhibition
C[C@@H]1NC(=O)N[C@@H]1CCCCCC(=O)O | inconclusive: 80.3%
CC1CCC2(CC1)NC(=O)N(CC(=O)Nc1ccc(N3CCCCC3)cc1)C2=O (centres undefined) | inconclusive: 24.2%
COCC(=O)Nc1ccc2c(c1)C(=O)N(C)[C@@H]1CC[C@@H](CC(=O)NCC3CCCCC3)O[C@H]1CO2 | inactive: -13.9%
Cc1ccc(NC(=O)CS(=O)CC(=O)Nc2ccccc2-c2ccc(C)o2)cc1 (centres undefined) | inconclusive: 26.6%
CN1CCN(C(=O)C[C@H]2C[C@@H]3c4cc(NS(=O)(=O)c5ccc(F)cc5)ccc4O[C@@H]3[C@H](CO)O2)CC1 | inconclusive: 46.2%
O=C(COc1ccc(S(=O)(=O)NCc2ccccc2)cc1Cl)NCc1ccncc1 | inconclusive: 21.2%
CN1c2ccc(-c3ccccc3)cc2[C@H]2[C@H](CCN2C(=O)c2ccccc2)[C@@H]1CO | inconclusive: 31.4%
COc1ccc([C@@H]2[C@@H]3C(=O)N(C(C)(C)C)C(=O)[C@@H]3[C@]3(Cc4ccccc4)C(=O)N(c4ccc(OC)cc4)C(=O)N23)cc1 | inconclusive: 22.2%
O=[N+]([O-])c1cccc(COc2cccc(CN3CCCC3)c2)c1 | inactive: -4.4%
c1ccc2c(c1)OCc1nccn1-2 | inconclusive: 47.8%
COc1ccccc1CCC(=O)N(C)CC(=O)Nc1ccc(Cl)c(C(F)(F)F)c1 | inconclusive: 23%
O=C(COc1ccc2ccc(=O)oc2c1)NCCN1CCOCC1 | inconclusive: 21%
COc1ccc2c3c([nH]c2c1)[C@H](CO)N(CC1CC1)CC31CCN(C(=O)c2ccc(F)cc2)CC1 | inactive: -0.954%
O=C1NC(c2ccccc2)=CC(c2ccccc2O)N1 (centres undefined) | active: 145%
C/C(=N/Nc1ccc(C(=O)O)cc1)c1ccc2c(c1)Nc1ccccc1S2 | inconclusive: 21.4%
CCCNC(=O)N[C@@H]1CC[C@H](CCn2cc(-c3cccc(F)c3)nn2)O[C@@H]1CO | inconclusive: 28.1%
C[C@H]1CN([C@@H](C)CO)C(=O)c2cc(C#CC(C)(C)O)cnc2O[C@@H]1CN(C)C(=O)CN(C)C | inactive: -1.52%
CN1CCN(c2cc(-c3cccc(C(=O)O)c3)nc3ccnn23)CC1 | inconclusive: 52.9%
N#C[C@@H]1[C@H](c2ccccc2-c2cccc(F)c2)[C@@H](CO)N1C(=O)C1CCCC1 | inconclusive: 22.7%
C[C@H]1CN([C@@H](C)CO)C(=O)c2cc(C#CCN(C)C)cnc2O[C@H]1CN(C)C(=O)c1cccc(F)c1 | active: 33.7%
CCN1CCN(CCCNC(=O)C2CCN(c3nnc(-n4c(C)ccc4C)s3)CC2)CC1 | inactive: -2.97%
C[C@@H]1CN([C@H](C)CO)C(=O)c2cc(C#Cc3ccc(F)cc3)cnc2O[C@H]1CN(C)S(C)(=O)=O | inactive: -5.87%
C[C@@H]1CCCCO[C@@H](CN(C)Cc2ccccc2)[C@@H](C)CN([C@@H](C)CO)C(=O)c2cc(N(C)C)ccc2O1 | inconclusive: 43.7%

3 consecutive records out of the list so far, for reference:
Structure (SMILES) | CPE inhibition
COc1ccc(Cc2n[nH]c(=S)n2-c2cc(C)ccc2C)cc1OC | active: 96.2%
C[C@H]1CN([C@@H](C)CO)C(=O)Cc2cc(NC(=O)c3ccncc3)ccc2O[C@@H]1CN(C)CC1CCCCC1 | inconclusive: 30.7%
Cc1oc(-c2ccccc2F)nc1CS(=O)CC(=O)NC1CCCC1 (centres undefined) | inconclusive: 28.3%

Additional compounds.

Structure (SMILES) | CPE inhibition
CC12CCC(=O)N1C(C(=O)NNC(=O)c1ccc(Br)cc1)CS2 (centres undefined) | inconclusive: 33.7%
O=C(NC1CCCC1)[C@@H]1[C@@H](CO)[C@@H]2Cn3c(ccc(-c4ccccc4)c3=O)[C@H]1N2CC1CC1 | active: 24.8%
O=C(O)c1ccccc1SCc1cn2cc(Cl)ccc2n1 | inactive: -6.97%
CSCCC(NC(=O)OCc1ccccc1)C(=O)NC(Cc1c[nH]c2ccccc12)C(=O)O (centres undefined) | inconclusive: 40.5%
C[C@@H]1CN([C@@H](C)CO)C(=O)c2cc(NS(C)(=O)=O)ccc2O[C@@H](C)CCCCO[C@@H]1CN(C)C(=O)Nc1ccc(C(F)(F)F)cc1 | active: 46.4%
COc1ccc(S(=O)(=O)N(C)C[C@H]2Oc3ccc(NC(=O)Nc4ccc(F)cc4)cc3CC(=O)N([C@@H](C)CO)C[C@@H]2C)cc1 | inconclusive: 29.1%
Cc1ccc(S(=O)(=O)Nc2ccc3c(c2)CC(=O)N([C@H](C)CO)C[C@@H](C)[C@H](CN(C)Cc2ccc4c(c2)OCO4)O3)cc1 | inactive: -10.6%
COc1ccc(S(=O)(=O)Nc2ccc3c(c2)CC(=O)N([C@H](C)CO)C[C@H](C)[C@@H](CN(C)C(=O)Nc2ccc4c(c2)OCO4)O3)cc1 | active: 26.1%
CO[C@H]1CN(C)C(=O)c2ccc(NC(=O)NC(C)C)cc2OC[C@@H](C)N(S(C)(=O)=O)C[C@@H]1C | active: 42.7%
COc1ccc2c3c(n(C)c2c1)[C@@H](CO)N(C)CC31CN(S(=O)(=O)c2cn(C)cn2)C1 | inactive: 1.63%
C[C@@H]1CN([C@@H](C)CO)C(=O)Cc2cc(NC(=O)CCCCCC(=O)Nc3ccccc3N)ccc2O[C@H]1CN(C)Cc1ccc(-c2ccccc2)cc1 | active: 25%
Cc1ccc([N+](=O)[O-])c(OCC(=O)OCC(=O)c2ccccc2)c1 | inconclusive: 56.1%
COc1ccc2c3c(n(C)c2c1)[C@H](CO)N(S(C)(=O)=O)CC31CCN(C(=O)CN(C)C)CC1 | inconclusive: 79.1%
CN(C)CCNc1nc2sc3c(c2c(=O)n1-c1ccc(F)cc1)CCCCC3 | active: 25.7%
Cc1ccc(C)c(NC(=S)N2CCN(S(=O)(=O)c3ccccc3)CC2)c1 | inconclusive: 57.2%
S=c1[nH]nc(-c2cc(-c3ccccc3)n[nH]2)n1/N=C/C(Br)=C/c1ccccc1 | inactive: -1.83%
S=C(NCCCn1ccnc1)Nc1ccc(Cl)cc1Cl | inconclusive: 55.5%
Cc1cccc(C(=O)N2CCCC(c3nc(-c4ccc(C)o4)no3)C2)c1 (centres undefined) | inconclusive: 49.8%
Cc1noc(C)c1S(=O)(=O)Nc1ccc2c(c1)C(=O)N([C@@H](C)CO)C[C@@H](C)[C@@H](CN(C)Cc1ccc3c(c1)OCO3)O2 | active: 31.6%
Cc1nc2sc(-c3ccccc3)cc2c(=O)[nH]1 | inactive: 4.22%
COc1ccccc1CN1[C@@H](CO)[C@@H]2c3ccccc3N(C(=O)c3ccc(F)cc3)C[C@@H]21 | inactive: -9.21%
COc1cc2sc3cc(NCC[C@@H]4CCCN4C)ccc3c(=O)c2cc1OC | inconclusive: 22.5%
CCNC(=O)C[C@H]1CC[C@H]2[C@H](COc3ccc(NC(=O)c4ccc(F)c(F)c4)cc3C(=O)N2C)O1 | active: 88.2%
